Here are results for 71 molecules from US4500707A, “Nucleosides useful in the preparation of polynucleotides” (University Patents, Inc., priority 1982, dated 1985).

One data set in a line: Color of trityl cations of triarylmethyl alcohols, tlc plates exposed to hydrochloric acid vapor (Table V). The following applies: ZnBr2, group removed from the oligonucleotide. It is filed as physicochemical.
As for `COc1ccc(C(O)(c2ccccc2)c2ccc(OC)cc2)cc1` [R1 = R2 = c; R3 = a], the “color with ZnBr2” value is recorded as “orange”.

The same data set, now with this note: triarylmethyl alcohol, tlc, hydrochloric acid vapor.
Turning to `OC(c1ccccc1)(c1ccccc1)c1ccccc1` [R1 = R2 = R3 = a], the Color result was “Yellow”. Regarding `COc1ccc(C(O)(c2ccc(OC)cc2)c2ccc(OC)cc2)cc1` [R1 = R2 = R3 = c], the Color entry is “Red”. As to `OC(c1ccc(Cl)cc1)(c1ccc(Cl)cc1)c1ccc(Cl)cc1` [R1 = R2 = R3 = g], the Color result is on record as “Yellow”. Still for that read-out and setting: next, `COc1ccccc1C(O)(c1ccccc1)c1ccccc1` [R1 = R2 = a; R3 = b]: “Yellow”; `COc1ccc(C(O)(c2ccccc2)c2ccccc2)cc1` [R1 = R2 = a; R3 = c]: “Yellow-Orange”. Regarding `COc1cccc(C(O)(c2ccccc2)c2ccccc2)c1` [R1 = R2 = a; R3 = d], the Color result is “Yellow”. Same read-out and setting: the same measure for `O=[N+]([O-])c1ccc(C(O)(c2ccccc2)c2ccccc2)cc1` [R1 = R2 = a; R3 = i]: “Red-Violet”; for `OC(c1ccccc1)(c1ccccc1)c1ccccc1Cl` [R1 = R2 = a; R3 = j]: “Yellow”. In the case of `CC(C)(C)c1ccc(C(O)(c2ccccc2)c2ccccc2)cc1` [R1 = R2 = a; R3 = k], the Color result was “Yellow”. Same read-out and setting: next, `OC(c1ccccc1)(c1ccccc1)c1ccco1` [R1 = R2 = a; R3 = m]: “Colorless”; `OC(c1ccccc1)(c1ccccc1)c1cnc2ccccc2c1` [R1 = R2 = a; R3 = q]: “Colorless”; `OC(c1ccccc1)(c1ccccc1)c1cncnc1` [R1 = R2 = a; R3 = r]: “Colorless”. Turning to `COc1ccccc1C(O)(c1ccccc1)c1ccccc1OC` [R1 = R2 = b; R3 = a], the Color result is recorded as “Black”. Still for that read-out and setting: the same measure for `COc1ccccc1C(O)(c1ccco1)c1ccccc1OC` [R1 = R2 = b; R3 = m]: “Lilac”; for `COc1ccccc1C(O)(c1ccccc1OC)c1cccc2ccccc12` [R1 = R2 = b; R3 = n]: “Blue”; for `COc1ccccc1C(O)(c1ccc(-c2ccccc2)cc1)c1ccccc1OC` [R1 = R2 = b; R3 = p]: “Purple”. Turning to `COc1ccc(C(O)(c2ccccc2)c2ccc(OC)cc2)cc1` [R1 = R2 = c; R3 = a], the Color result is given as “Orange”. For the molecule `COc1ccc(C(O)(c2ccc(OC)cc2)c2ccc(C(C)(C)C)cc2)cc1` [R1 = R2 = c; R3 = k], the Color result is given as “Orange”. For the molecule `COc1ccc(C(O)(c2ccc(OC)cc2)c2ccco2)cc1` [R1 = R2 = c; R3 = m], the Color entry is reported as “Yellow”.

Consider `COc1ccc(C(O)(c2ccc(OC)cc2)c2cccc3ccccc23)cc1` [R1 = R2 = c; R3 = n], for which the Color result is on record as “Violet”.

For the molecule `COc1ccc(C(O)(c2ccc(OC)cc2)c2ccc3ccccc3c2)cc1` [R1 = R2 = c; R3 = o], the Color entry is given as “Burnt-Orange”. The same measure, in the same setting: next, `COc1ccc(C(O)(c2ccc(OC)cc2)c2ccc(-c3ccccc3)cc2)cc1` [R1 = R2 = c; R3 = p]: “Purple”; `COc1ccc(C(O)(c2cccc(OC)c2)c2cccc(OC)c2)cc1` [R1 = R2 = d; R3 = c]: “Red”. For the molecule `COc1cccc(C(O)(c2ccc(C(C)(C)C)cc2)c2cccc(OC)c2)c1` [R1 = R2 = d; R3 = k], the Color result is on record as “Yellow”. The same measure, in the same setting: next, `COc1cccc(C(O)(c2cccc(OC)c2)c2ccco2)c1` [R1 = R2 = d; R3 = m]: “Yellow”; `COc1ccc(C(O)(c2ccc(F)cc2)c2ccc(F)cc2)cc1` [R1 = R2 = e; R3 = c]: “Red-Orange”; `CC(C)(C)c1ccc(C(O)(c2ccc(F)cc2)c2ccc(F)cc2)cc1` [R1 = R2 = e; R3 = k]: “Yellow-Orange”.

With `OC(c1ccc(F)cc1)(c1ccc(F)cc1)c1ccco1` [R1 = R2 = e; R3 = m], the Color entry is “Yellow”. For the molecule `COc1ccc(C(O)(c2ccccc2[N+](=O)[O-])c2ccccc2[N+](=O)[O-])cc1` [R1 = R2 = f; R3 = c], the Color result is “Yellow”. Still for that read-out and setting: next, `CC(C)(C)c1ccc(C(O)(c2ccccc2[N+](=O)[O-])c2ccccc2[N+](=O)[O-])cc1` [R1 = R2 = f; R3 = k]: “Yellow”; `O=[N+]([O-])c1ccccc1C(O)(c1ccco1)c1ccccc1[N+](=O)[O-]` [R1 = R2 = f; R3 = m]: “Colorless”. The same measure, in the same setting: next, `OC(c1ccccc1)(c1ccc(Cl)cc1)c1ccc(Cl)cc1` [R1 = R2 = g; R3 = a]: “Yellow”. As to `COc1ccc(C(O)(c2ccc(Cl)cc2)c2ccc(Cl)cc2)cc1` [R1 = R2 = g; R3 = c], the Color entry was “Red-Orange”. Still for that read-out and setting: next, `CC(C)(C)c1ccc(C(O)(c2ccc(Cl)cc2)c2ccc(Cl)cc2)cc1` [R1 = R2 = g; R3 = k]: “Yellow”; `OC(c1ccc(Cl)cc1)(c1ccc(Cl)cc1)c1ccco1` [R1 = R2 = g; R3 = m]: “Yellow-Orange”; `OC(c1ccccc1)(c1ccc(-c2ccccc2)cc1)c1ccc(-c2ccccc2)cc1` [R1 = R2 = p; R3 = a]: “Violet-Red”. The same measure, in the same setting: the same measure for `COc1ccc(C(O)(c2ccc(-c3ccccc3)cc2)c2ccc(-c3ccccc3)cc2)cc1` [R1 = R2 = p; R3 = c]: “Red”; for `CC(C)(C)c1ccc(C(O)(c2ccc(-c3ccccc3)cc2)c2ccc(-c3ccccc3)cc2)cc1` [R1 = R2 = p; R3 = k]: “Colorless”; for `OC(c1ccc(-c2ccccc2)cc1)(c1ccc(-c2ccccc2)cc1)c1ccco1` [R1 = R2 = p; R3 = m]: “Peach”. On the same count and under the same terms, the same measure for `OC(c1ccc(-c2ccccc2)cc1)(c1ccc(-c2ccccc2)cc1)c1cccc2ccccc12` [R1 = R2 = p; R3 = n]: “Deep Purple”; for `OC(c1ccccc1)(c1cnc2ccccc2c1)c1cnc2ccccc2c1` [R1 = R2 = q; R3 = a]: “Colorless”.

Regarding `OC(c1ccccc1)(c1cncnc1)c1cncnc1` [R1 = R2 = r; R3 = a], the Color result is given as “Colorless”.

On to `COc1ccc(C(O)(c2ccccc2)c2cccc3ccccc23)cc1` (stereo not shown) [R1 = a; R2 = c; R3 = n], for which the Color result is given as “Red”. In the case of `COc1ccc(C(O)(c2ccccc2)c2ccc(F)cc2)cc1` (stereo not shown) [R1 = a; R2 = e; R3 = c], the Color result was “Yellow-Orange”. In the case of `OC(c1ccccc1)(c1ccc(F)cc1)c1ccc(Cl)cc1` (stereo not shown) [R1 = a; R2 = e; R3 = g], the Color result is given as “Yellow”. In the case of `Cc1ccc(C(O)(c2ccccc2)c2ccc(F)cc2)cc1` (stereo not shown) [R1 = a; R2 = e; R3 = h], the Color entry is “Yellow”.

With `OC(c1ccccc1)(c1ccc(F)cc1)c1cccc2ccccc12` (stereo not shown) [R1 = a; R2 = e; R3 = n], the Color result is on record as “Green”.

With `COc1ccccc1C(O)(c1ccc(Cl)cc1)c1ccc(Cl)cc1` [R1 = b; R2 = R3 = g], the Color entry is on record as “Yellow”.

Consider `COc1ccccc1C(O)(c1ccccc1)c1ccc([N+](=O)[O-])cc1` (stereo not shown) [R1 = b; R2 = a; R3 = i], for which the Color entry is given as “Red”. As for `COc1ccccc1C(O)(c1ccccc1)c1ccc(Cl)cc1` (stereo not shown) [R1 = b; R2 = g; R3 = a], the Color result was “Yellow”. Same read-out and setting: the same measure for `COc1ccc(C(O)(c2ccccc2)c2ccc([N+](=O)[O-])cc2)cc1` (stereo not shown) [R1 = c; R2 = a; R3 = i]: “Deep Purple”; for `COc1ccc(C(O)(c2ccccc2)c2ccccc2Cl)cc1` (stereo not shown) [R1 = c; R2 = a; R3 = j]: “Deep Burnt Orange”; for `COc1ccc(C(O)(c2ccccc2)c2ccccc2OC)cc1` (stereo not shown) [R1 = c; R2 = b; R3 = a]: “Red”. Take `COc1ccc(C(O)(c2ccccc2)c2cccc(OC)c2)cc1` (stereo not shown) [R1 = c; R2 = d; R3 = a]: the Color entry is “Orange”. Still for that read-out and setting: next, `COc1ccc(C(O)(c2ccccc2)c2ccc(Cl)cc2)cc1` (stereo not shown) [R1 = c; R2 = g; R3 = a]: “Yellow-Orange”. The same measure, in the same setting: the same measure for `COc1ccc(C(O)(c2ccccc2)c2ccc(Br)cc2)cc1` (stereo not shown) [R1 = c; R2 = l; R3 = a]: “Yellow Orange”; for `COc1ccc(C(O)(c2ccccc2)c2ccc(-c3ccccc3)cc2)cc1` (stereo not shown) [R1 = c; R2 = p; R3 = a]: “Red-Orange”; for `COc1ccc(C(O)(c2ccccc2)c2cnc3ccccc3c2)cc1` (stereo not shown) [R1 = c; R2 = q; R3 = a]: “Colorless”. Still for that read-out and setting: next, `COc1ccc(C(O)(c2ccccc2)c2cncnc2)cc1` (stereo not shown) [R1 = c; R2 = r; R3 = a]: “Colorless”; `COc1cccc(C(O)(c2ccccc2)c2ccc([N+](=O)[O-])cc2)c1` (stereo not shown) [R1 = d; R2 = a; R3 = i]: “Burnt-Orange”. In the case of `COc1cccc(C(O)(c2ccccc2)c2ccccc2Cl)c1` (stereo not shown) [R1 = d; R2 = a; R3 = j], the Color result is listed as “Carmine”. The same measure, in the same setting: the same measure for `OC(c1ccccc1)(c1ccccc1)c1ccc(F)cc1` [R1 = e; R2 = R3 = a]: “Orange”; for `O=[N+]([O-])c1ccc(C(O)(c2ccccc2)c2ccc(F)cc2)cc1` (stereo not shown) [R1 = e; R2 = a; R3 = i]: “Red-Violet”; for `OC(c1ccccc1)(c1ccc(F)cc1)c1ccccc1Cl` (stereo not shown) [R1 = e; R2 = a; R3 = j]: “Orange”.

Regarding `O=[N+]([O-])c1ccccc1C(O)(c1ccccc1)c1ccccc1` [R1 = f; R2 = R3 = a], the Color result was “Yellow”. For `O=[N+]([O-])c1ccc(C(O)(c2ccccc2)c2ccccc2[N+](=O)[O-])cc1` (stereo not shown) [R1 = f; R2 = a; R3 = i], the Color result is recorded as “Yellow”. Take `O=[N+]([O-])c1ccccc1C(O)(c1ccccc1)c1ccccc1Cl` (stereo not shown) [R1 = f; R2 = a; R3 = j]: the Color result was “Yellow”. The same measure, in the same setting: next, `OC(c1ccccc1)(c1ccccc1)c1ccc(Cl)cc1` [R1 = g; R2 = R3 = a]: “Yellow”; `O=[N+]([O-])c1ccc(C(O)(c2ccccc2)c2ccc(Cl)cc2)cc1` (stereo not shown) [R1 = g; R2 = a; R3 = i]: “Deep Red”; `OC(c1ccccc1)(c1ccc(Cl)cc1)c1ccccc1Cl` (stereo not shown) [R1 = g; R2 = a; R3 = j]: “Yellow”. As for `OC(c1ccccc1)(c1ccc(Cl)cc1)c1ccc(Br)cc1` (stereo not shown) [R1 = g; R2 = l; R3 = a], the Color result is listed as “Yellow”.

Still in this data set, the particulars now being: triarylmethyl alcohol, tlc, hydrochloric acid vapor; listed as R1 = c; R2 = j; R3 = a.
As to `COc1ccc(C(O)(c2ccccc2)c2ccccc2Cl)cc1` (stereo not shown) [R1 = c; R2 = a; R3 = j], the Color result is reported as “Yellow-Orange”.
